Experimental findings from the supplement of paper PMC12819154, “High-throughput peptide-centric local stability assay extends protein–ligand identification to membrane proteins, tissues and bacteria” (Nature Structural & Molecular Biology, 2025) are described below.

Protein sequences, listed by entry. Tags and fused reporters are not part of them. Lines headed by an entry give the natural chain unless they say otherwise; changes in a name come on top.
UniProt O43633: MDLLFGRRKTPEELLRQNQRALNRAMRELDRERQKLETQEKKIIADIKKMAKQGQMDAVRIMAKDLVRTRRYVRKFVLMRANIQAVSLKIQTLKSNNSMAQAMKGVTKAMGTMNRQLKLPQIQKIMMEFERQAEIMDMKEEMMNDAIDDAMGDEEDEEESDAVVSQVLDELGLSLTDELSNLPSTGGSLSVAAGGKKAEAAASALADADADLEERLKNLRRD
UniProt O75369, whole entry: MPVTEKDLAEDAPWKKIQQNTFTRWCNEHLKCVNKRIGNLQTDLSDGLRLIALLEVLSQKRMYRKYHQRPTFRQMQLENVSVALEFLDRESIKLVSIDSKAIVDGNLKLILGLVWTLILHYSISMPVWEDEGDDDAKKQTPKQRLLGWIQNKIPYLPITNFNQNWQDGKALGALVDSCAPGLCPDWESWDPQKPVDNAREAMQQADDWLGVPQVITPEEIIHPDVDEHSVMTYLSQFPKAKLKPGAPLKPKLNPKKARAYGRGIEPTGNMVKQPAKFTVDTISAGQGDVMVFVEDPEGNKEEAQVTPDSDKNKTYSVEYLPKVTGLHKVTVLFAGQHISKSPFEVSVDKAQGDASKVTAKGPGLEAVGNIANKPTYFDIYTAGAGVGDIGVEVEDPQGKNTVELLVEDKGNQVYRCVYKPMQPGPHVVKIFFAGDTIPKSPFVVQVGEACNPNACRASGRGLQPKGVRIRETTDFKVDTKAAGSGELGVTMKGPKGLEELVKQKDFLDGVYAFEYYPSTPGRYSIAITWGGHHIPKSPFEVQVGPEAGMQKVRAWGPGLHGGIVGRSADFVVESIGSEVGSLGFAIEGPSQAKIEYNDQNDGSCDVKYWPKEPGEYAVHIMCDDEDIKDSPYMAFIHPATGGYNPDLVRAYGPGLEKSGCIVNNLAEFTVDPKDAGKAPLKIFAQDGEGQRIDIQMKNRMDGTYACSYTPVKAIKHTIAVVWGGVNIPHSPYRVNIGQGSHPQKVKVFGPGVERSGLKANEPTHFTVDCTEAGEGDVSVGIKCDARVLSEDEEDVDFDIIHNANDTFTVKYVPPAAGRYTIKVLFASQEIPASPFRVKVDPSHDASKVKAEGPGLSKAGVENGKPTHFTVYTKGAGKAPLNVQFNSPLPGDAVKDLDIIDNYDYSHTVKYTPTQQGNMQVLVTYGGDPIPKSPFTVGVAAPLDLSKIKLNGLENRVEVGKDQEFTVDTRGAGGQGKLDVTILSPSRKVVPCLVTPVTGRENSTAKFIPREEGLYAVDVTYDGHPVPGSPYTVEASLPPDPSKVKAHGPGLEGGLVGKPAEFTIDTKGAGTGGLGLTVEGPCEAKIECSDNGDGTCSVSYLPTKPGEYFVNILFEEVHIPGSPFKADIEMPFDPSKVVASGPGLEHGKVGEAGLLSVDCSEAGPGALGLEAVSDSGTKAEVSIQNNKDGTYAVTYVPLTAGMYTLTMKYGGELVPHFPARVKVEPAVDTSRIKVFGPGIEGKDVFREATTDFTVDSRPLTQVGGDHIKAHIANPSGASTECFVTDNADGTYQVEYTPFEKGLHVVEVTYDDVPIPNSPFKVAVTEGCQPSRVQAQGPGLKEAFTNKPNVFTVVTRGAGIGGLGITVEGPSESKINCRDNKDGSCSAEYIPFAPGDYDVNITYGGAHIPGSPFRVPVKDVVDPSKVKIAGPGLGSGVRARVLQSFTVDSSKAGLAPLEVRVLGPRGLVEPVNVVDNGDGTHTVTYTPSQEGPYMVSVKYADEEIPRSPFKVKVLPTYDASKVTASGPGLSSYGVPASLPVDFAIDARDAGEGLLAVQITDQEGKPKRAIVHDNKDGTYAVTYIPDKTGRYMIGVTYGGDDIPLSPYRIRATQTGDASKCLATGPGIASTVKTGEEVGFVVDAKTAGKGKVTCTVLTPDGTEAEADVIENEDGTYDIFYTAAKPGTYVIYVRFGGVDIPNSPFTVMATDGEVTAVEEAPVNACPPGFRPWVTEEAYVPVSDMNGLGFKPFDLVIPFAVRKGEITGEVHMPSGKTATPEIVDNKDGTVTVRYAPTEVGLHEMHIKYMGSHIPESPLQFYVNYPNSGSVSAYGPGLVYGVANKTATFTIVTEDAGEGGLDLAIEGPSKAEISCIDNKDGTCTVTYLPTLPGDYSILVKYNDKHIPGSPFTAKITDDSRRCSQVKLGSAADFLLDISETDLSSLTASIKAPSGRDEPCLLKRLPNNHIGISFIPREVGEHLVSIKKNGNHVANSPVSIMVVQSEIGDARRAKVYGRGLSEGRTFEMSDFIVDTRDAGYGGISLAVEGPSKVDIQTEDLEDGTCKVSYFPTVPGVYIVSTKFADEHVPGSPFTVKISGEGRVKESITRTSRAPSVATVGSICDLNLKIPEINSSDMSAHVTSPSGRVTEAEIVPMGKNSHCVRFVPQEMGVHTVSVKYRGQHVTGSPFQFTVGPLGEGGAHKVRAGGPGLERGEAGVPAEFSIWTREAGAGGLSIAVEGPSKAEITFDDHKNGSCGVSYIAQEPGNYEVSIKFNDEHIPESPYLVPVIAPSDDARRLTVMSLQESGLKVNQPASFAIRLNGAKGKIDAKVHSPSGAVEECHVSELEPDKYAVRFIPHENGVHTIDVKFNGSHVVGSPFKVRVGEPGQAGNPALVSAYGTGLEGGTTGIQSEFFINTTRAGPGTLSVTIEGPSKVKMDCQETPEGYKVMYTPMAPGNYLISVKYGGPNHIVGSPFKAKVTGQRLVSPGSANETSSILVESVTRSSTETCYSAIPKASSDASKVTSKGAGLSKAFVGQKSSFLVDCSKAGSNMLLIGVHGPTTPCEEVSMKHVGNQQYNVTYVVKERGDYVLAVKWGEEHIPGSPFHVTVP
UniProt O43422: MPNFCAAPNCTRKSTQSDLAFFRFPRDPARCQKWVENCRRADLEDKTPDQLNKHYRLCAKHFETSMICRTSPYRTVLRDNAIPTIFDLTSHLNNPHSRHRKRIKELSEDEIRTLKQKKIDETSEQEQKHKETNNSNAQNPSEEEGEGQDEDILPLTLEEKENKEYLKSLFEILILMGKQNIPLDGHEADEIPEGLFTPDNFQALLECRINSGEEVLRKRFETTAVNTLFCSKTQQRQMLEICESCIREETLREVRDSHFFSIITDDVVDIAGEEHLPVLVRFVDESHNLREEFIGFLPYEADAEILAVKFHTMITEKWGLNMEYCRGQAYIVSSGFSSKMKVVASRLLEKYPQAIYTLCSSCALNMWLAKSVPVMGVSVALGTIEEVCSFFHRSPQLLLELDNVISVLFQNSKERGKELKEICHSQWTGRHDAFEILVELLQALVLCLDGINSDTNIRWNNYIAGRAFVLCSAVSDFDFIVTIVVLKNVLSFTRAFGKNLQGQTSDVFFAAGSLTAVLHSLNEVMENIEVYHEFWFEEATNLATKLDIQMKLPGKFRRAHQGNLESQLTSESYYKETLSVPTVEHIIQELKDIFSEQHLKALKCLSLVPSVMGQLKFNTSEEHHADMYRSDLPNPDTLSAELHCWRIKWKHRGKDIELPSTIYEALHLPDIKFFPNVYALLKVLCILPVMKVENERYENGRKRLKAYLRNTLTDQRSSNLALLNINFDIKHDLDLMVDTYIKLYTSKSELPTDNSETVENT
UniProt O43543: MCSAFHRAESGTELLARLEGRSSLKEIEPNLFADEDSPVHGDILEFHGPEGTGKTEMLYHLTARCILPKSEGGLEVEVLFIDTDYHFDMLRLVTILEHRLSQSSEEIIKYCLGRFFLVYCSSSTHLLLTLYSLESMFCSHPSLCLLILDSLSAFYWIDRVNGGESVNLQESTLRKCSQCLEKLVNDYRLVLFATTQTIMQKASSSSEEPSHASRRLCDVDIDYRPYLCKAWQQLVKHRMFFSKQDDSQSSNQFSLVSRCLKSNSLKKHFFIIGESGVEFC
UniProt O15541: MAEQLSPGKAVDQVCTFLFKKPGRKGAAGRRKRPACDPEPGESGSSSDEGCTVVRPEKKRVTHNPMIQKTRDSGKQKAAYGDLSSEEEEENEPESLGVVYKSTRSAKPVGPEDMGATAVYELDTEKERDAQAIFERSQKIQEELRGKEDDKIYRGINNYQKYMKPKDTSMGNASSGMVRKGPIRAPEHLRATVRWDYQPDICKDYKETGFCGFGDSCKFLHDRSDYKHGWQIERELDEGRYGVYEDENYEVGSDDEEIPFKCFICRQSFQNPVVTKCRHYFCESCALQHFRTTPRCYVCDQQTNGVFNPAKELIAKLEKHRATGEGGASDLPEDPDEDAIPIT
UniProt O43290: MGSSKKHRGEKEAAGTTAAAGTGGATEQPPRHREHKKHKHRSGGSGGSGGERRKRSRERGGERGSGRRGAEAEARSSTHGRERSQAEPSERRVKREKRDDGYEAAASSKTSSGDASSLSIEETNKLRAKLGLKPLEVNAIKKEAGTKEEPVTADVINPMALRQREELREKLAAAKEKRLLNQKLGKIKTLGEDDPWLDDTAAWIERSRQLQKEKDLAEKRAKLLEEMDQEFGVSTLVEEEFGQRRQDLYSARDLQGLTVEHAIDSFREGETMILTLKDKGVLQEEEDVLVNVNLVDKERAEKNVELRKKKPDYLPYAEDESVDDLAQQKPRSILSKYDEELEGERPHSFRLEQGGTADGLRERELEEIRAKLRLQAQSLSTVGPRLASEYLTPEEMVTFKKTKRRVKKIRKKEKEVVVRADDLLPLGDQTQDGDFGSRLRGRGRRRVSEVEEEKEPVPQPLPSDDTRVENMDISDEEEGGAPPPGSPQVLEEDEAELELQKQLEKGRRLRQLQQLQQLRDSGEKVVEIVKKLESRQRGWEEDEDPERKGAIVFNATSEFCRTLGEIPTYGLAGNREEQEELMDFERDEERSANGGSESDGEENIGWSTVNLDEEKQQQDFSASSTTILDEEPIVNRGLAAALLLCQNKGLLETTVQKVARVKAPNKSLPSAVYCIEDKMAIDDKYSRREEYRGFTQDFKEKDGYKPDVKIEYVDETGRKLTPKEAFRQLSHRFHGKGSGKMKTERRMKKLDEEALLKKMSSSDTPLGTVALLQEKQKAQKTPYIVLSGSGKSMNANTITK
UniProt O60296: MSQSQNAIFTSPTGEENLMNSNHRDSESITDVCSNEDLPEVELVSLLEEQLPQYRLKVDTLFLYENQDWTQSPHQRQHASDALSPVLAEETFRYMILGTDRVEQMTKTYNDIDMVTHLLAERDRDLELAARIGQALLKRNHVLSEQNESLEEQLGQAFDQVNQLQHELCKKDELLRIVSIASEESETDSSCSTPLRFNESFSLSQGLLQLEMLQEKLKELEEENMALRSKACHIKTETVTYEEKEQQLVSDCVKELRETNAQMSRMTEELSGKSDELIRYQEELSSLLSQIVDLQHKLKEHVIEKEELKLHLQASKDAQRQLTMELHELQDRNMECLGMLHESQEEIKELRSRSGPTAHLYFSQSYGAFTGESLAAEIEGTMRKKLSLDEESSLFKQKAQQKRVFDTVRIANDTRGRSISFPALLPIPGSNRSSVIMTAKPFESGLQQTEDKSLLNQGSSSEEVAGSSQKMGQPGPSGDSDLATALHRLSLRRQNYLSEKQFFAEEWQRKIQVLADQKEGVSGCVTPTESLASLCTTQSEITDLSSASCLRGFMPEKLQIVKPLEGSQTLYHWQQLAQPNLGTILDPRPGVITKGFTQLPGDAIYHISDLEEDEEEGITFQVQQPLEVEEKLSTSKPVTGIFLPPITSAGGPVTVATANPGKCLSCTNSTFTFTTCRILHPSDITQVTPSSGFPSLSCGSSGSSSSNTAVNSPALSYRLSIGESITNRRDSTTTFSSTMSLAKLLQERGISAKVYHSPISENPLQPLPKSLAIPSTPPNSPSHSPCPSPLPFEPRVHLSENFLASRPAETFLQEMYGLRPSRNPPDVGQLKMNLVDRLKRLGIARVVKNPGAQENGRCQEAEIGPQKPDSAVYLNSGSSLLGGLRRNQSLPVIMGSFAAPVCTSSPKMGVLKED
UniProt O43310: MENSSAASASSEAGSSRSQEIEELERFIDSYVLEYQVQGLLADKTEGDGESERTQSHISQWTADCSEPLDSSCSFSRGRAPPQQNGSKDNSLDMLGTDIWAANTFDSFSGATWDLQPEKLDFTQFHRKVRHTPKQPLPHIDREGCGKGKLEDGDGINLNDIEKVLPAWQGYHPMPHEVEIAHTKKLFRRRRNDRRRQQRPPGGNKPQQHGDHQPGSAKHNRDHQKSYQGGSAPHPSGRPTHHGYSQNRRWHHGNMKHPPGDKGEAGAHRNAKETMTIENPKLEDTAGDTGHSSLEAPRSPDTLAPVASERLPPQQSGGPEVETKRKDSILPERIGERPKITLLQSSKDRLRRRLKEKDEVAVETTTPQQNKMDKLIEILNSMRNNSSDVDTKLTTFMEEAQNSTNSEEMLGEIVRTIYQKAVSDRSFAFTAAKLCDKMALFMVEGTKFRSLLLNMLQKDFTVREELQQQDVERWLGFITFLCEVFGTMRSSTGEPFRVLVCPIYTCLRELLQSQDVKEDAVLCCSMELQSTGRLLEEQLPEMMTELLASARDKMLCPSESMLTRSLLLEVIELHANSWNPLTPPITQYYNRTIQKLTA

This is one part of the list. Small differences around the control level are noise.

Compound in the assay: Cc1nc(Nc2ncc(C(=O)Nc3c(C)cccc3Cl)s2)cc(N2CCN(CCO)CC2)n1 [dasatinib]
As to the kind of experiment: log2 fold change of tryptic peptide abundance, ligand vs vehicle (limited proteolysis) (log2 ratio); higher = more trypsin-susceptible (destabilized). The note with it: ligand concentration: 5 uM; sample: K562 cleared lysate.
Turning to “CHMP2A (peptide sequence: IMMEFER, peptide start residue: 125) (UniProt O43633)”, the log2 fold change turned out to be 0.0887.

For the target “CDC40 (peptide sequence: QEEEKPGEEK, peptide start residue: 229) (UniProt O60508)”, the log2 fold change was 0.535.

Consider “FLNB (peptide sequence: YADEEIPR, peptide start residue: 1497) (UniProt O75369)”, for which the log2 fold change is -0.337.

As to “UniProt O43422 (peptide sequence: INSGEEVLR, peptide start residue: 209)”, the log2 fold change was found to be 0.108.

For the target “TRIM3 (peptide sequence: EKGEFTNLQGVSAASSGR, peptide start residue: 482) (UniProt O75382)”, the log2 fold change amounted to 0.494.

As to “XRCC2 (peptide sequence: ASSSSEEPSHASR, peptide start residue: 202) (UniProt O43543)”, the log2 fold change came to 0.164.

As for “PRICKLE3 (peptide sequence: RPRSPPPR, peptide start residue: 499) (UniProt O43900)”, the log2 fold change was -0.0899.

With “UniProt O43189 (peptide sequence: LSLPYGLK, peptide start residue: 165)”, the log2 fold change was -0.107.

As to “ZFC3H1 (peptide sequence: KQAEEEER, peptide start residue: 458) (UniProt O60293)”, the log2 fold change was -0.293.

“ROCK2 (peptide sequence: IELQMTLDSK, peptide start residue: 1103) (UniProt O75116)”: the log2 fold change is 0.151.

As for “DNAJC6 (peptide sequence: ILEWIEGK, peptide start residue: 822) (UniProt O75061)”, the log2 fold change was -0.349.

Regarding “RNF113A (peptide sequence: SAKPVGPEDMGATAVYELDTEKER, peptide start residue: 105) (UniProt O15541)”, the log2 fold change was 0.13.

Regarding “ASNA1 (peptide sequence: LEETLPVIR, peptide start residue: 222) (UniProt O43681)”, the log2 fold change was -0.106.

Take “PAGE4 (peptide sequence: KVEGDCQEMDLEK, peptide start residue: 58) (UniProt O60829)”: the log2 fold change was 0.116.

In the case of “ZNHIT1 (peptide sequence: LPQFDDDADTGKK, peptide start residue: 55) (UniProt O43257)”, the log2 fold change was -0.219.

As to “UniProt O75344 (peptide sequence: DYVDKEK, peptide start residue: 117)”, the log2 fold change came out at 0.52.

On to “MED14 (peptide sequence: LVEGFYPAPGLK, peptide start residue: 949) (UniProt O60244)”, for which the log2 fold change is -0.372.

Regarding “COQ9 (peptide sequence: VNDAMNMGHTAK, peptide start residue: 277) (UniProt O75208)”, the log2 fold change was -0.216.

With “PRKAB2 (peptide sequence: SEGAGGHAPGKEHK, peptide start residue: 21) (UniProt O43741)”, the log2 fold change is -0.294.

Turning to “TBC1D4 (peptide sequence: HASAPSHVQPSDSEK, peptide start residue: 339) (UniProt O60343)”, the log2 fold change came to 0.456.

Take “POLQ (peptide sequence: TSFPLQIK, peptide start residue: 1112) (UniProt O75417)”: the log2 fold change stood at 0.509.

On to “NCK2 (peptide sequence: KGASLSNGQGSR, peptide start residue: 184) (UniProt O43639)”, for which the log2 fold change turned out to be 0.357.

Take “SART1 (peptide sequence: EKDLAEKR, peptide start residue: 213) (UniProt O43290)”: the log2 fold change is -0.342.

Regarding “SNX2 (peptide sequence: HPTLLQDPDLR, peptide start residue: 249) (UniProt O60749)”, the log2 fold change was -0.122.

Regarding “UniProt O75153 (peptide sequence: HYILDLLR, peptide start residue: 561)”, the log2 fold change was -0.287.

In the case of “ZNF207 (peptide sequence: ILIQHQK, peptide start residue: 25) (UniProt O43670)”, the log2 fold change was -0.485.

As for “UniProt O60296 (peptide sequence: VYHSPISENPLQPLPK, peptide start residue: 754)”, the log2 fold change is -0.533.

Consider “RANBP6 (peptide sequence: TIECISHIGLAVGK, peptide start residue: 565) (UniProt O60518)”, for which the log2 fold change came to 0.567.

As to “UniProt O43310 (peptide sequence: VLPAWQGYHPMPHEVEIAHTK, peptide start residue: 164)”, the log2 fold change is -0.471.

Regarding “UniProt O60664 (peptide sequence: IATSLDGFDVASVQQQR, peptide start residue: 214)”, the log2 fold change is 0.498.

As for “NBN (peptide sequence: NSTSRNPSGINDDYGQLK, peptide start residue: 666) (UniProt O60934)”, the log2 fold change turned out to be 0.986.

As for “UniProt O60292 (peptide sequence: GCQALTELLR, peptide start residue: 234)”, the log2 fold change is -0.304.

Consider “GTPBP6 (peptide sequence: GNFEHLTEK, peptide start residue: 156) (UniProt O43824)”, for which the log2 fold change stood at 0.43.

Regarding “UniProt O43314 (peptide sequence: QIVVGICSMAK, peptide start residue: 43)”, the log2 fold change was 0.585.

In the case of “PPP1R11 (peptide sequence: KVEWTSDTVDNEHMGR, peptide start residue: 40) (UniProt O60927)”, the log2 fold change was 0.0478.

In the case of “PLOD3 (peptide sequence: TLGLGEEWR, peptide start residue: 68) (UniProt O60568)”, the log2 fold change is 0.221.

Regarding “PRC1 (peptide sequence: LPPSGSKPVAASTCSGK, peptide start residue: 518) (UniProt O43663)”, the log2 fold change amounted to 1.5.
